Measured data: PubChem BioAssay AID743121 (NCATS, 2013)
Here is one part, drawn at random, of about 26,000 deposited reagents. Of all reagents, 167 (0.63%) were called active. 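Calls are per gene from RSA p-values that are not deposited; an individual active-marked siRNA can sensitise only weakly.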 Reagents against one gene are numbered here.

- Test: 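Knock-downs that sensitise breast cancer cells to camptothecin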 (primary screen)
- Cells: MDA-MB-231 cells, a human breast cancer line
- Reagents: single siRNA against human genes, 20 nM siRNA (0.8 pmol per well)
- Duration: 120 h (drug added 48 h after transfection, read 72 h later)
- Challenge: camptothecin 20 nM (about EC30) for 72 h; vehicle 0.1% DMSO in parallel plates
- Read-out: 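CellTiter-Glo ATP signal, scaled to control siRNA as percent viability; sensitisation given as log2 of untreated divided by camptothecin-treated viability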
- Scale: log2 vehicle/camptothecin viability: higher = stronger sensitisation to camptothecin; viability with camptothecin and viability without drug: higher = more viable cells
- Rule for the call: 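Active genes have an RSA gene-level p-value below 0.001, computed from the ratios of their separate siRNAs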

Gene | reagent | log2 vehicle/camptothecin viability | viability with camptothecin (% of control) | viability without drug (% of control) | outcome
SNAP23 (synaptosome associated protein 23) | 1 | 1.16 | 21.8 | 48.8 | inactive
SNAP23 (synaptosome associated protein 23) | 2 | -0.132 | 70.8 | 64.6 | inactive
SNAP23 (synaptosome associated protein 23) | 3 | -0.583 | 94.1 | 62.8 | inactive
SNAP23 (synaptosome associated protein 23) | 4 | -0.192 | 118 | 103 | inactive
IL3 (interleukin 3) | 1 | 0.218 | 74.2 | 86.4 | inactive
IL3 (interleukin 3) | 2 | 0.0539 | 59.7 | 61.9 | inactive
IL3 (interleukin 3) | 3 | -0.368 | 107 | 82.9 | inactive
MOXD1 (monooxygenase DBH like 1) | 1 | 0.573 | 33 | 49 | inactive
MOXD1 (monooxygenase DBH like 1) | 2 | 0.0951 | 72.8 | 77.8 | inactive
MOXD1 (monooxygenase DBH like 1) | 3 | -0.0823 | 82.8 | 78.2 | inactive
MOXD1 (monooxygenase DBH like 1) | 4 | 0.0964 | 89.8 | 96 | inactive

Continued (2 carried over from the part before).
Gene | reagent | log2 vehicle/camptothecin viability | viability with camptothecin (% of control) | viability without drug (% of control) | outcome
MOXD1 (monooxygenase DBH like 1) | 3 | -0.0823 | 82.8 | 78.2 | inactive
MOXD1 (monooxygenase DBH like 1) | 4 | 0.0964 | 89.8 | 96 | inactive
RPGRIP1 (RPGR interacting protein 1) | 1 | 0.471 | 61.5 | 85.2 | inactive
RPGRIP1 (RPGR interacting protein 1) | 2 | -0.183 | 68.9 | 60.7 | inactive
RPGRIP1 (RPGR interacting protein 1) | 3 | 0.148 | 87 | 96.4 | inactive
RPGRIP1 (RPGR interacting protein 1) | 4 | -0.236 | 114 | 97 | inactive
NOX1 (NADPH oxidase 1) | 1 | -0.127 | 88.8 | 81.3 | inactive
NOX1 (NADPH oxidase 1) | 2 | -0.00234 | 102 | 102 | inactive
NOX1 (NADPH oxidase 1) | 3 | -0.0326 | 81.4 | 79.6 | inactive
NOX1 (NADPH oxidase 1) | 4 | -0.474 | 92.6 | 66.7 | inactive
NCAPG (non-SMC condensin I complex subunit G) | 1 | -0.302 | 76.7 | 62.2 | inactive
NCAPG (non-SMC condensin I complex subunit G) | 2 | -0.275 | 42.7 | 35.3 | inactive
NCAPG (non-SMC condensin I complex subunit G) | 3 | 0.236 | 19.1 | 22.5 | inactive
NCAPG (non-SMC condensin I complex subunit G) | 4 | -0.134 | 87.3 | 79.6 | inactive
NDN (necdin, MAGE family member) | 1 | 0.512 | 39.3 | 56.1 | inactive
NDN (necdin, MAGE family member) | 2 | -0.41 | 65.1 | 49 | inactive
NDN (necdin, MAGE family member) | 3 | -0.487 | 83.2 | 59.4 | inactive
FCAMR (Fc alpha and mu receptor) | 1 | -0.275 | 110 | 91 | inactive
FCAMR (Fc alpha and mu receptor) | 2 | -0.13 | 105 | 95.8 | inactive
FCAMR (Fc alpha and mu receptor) | 3 | -0.235 | 99.1 | 84.3 | inactive
FCAMR (Fc alpha and mu receptor) | 4 | 0.398 | 13.6 | 17.9 | inactive
